Assay results as given in patent US7129271B2, “Compounds for pest control and methods for their use” (The United States of America as represented by the …, priority 2000, dated 2006).

Tests used:
Ixodes scapularis nymphs = experiment: Residual activity, treated vials aged before loading (Example 9); type: in vivo
Procedure: (§1) Tick and Flea Bioassays. Concentrations of the compounds were prepared by 2-fold serial dilutions of a 0.5% (wt:vol) solution of the extracts in acetone. The approximate toxicity of individual compounds was determined with a total of 8 doses ranging from 0.002% to 0.25%. […] A control treated with acetone only was run with each series. Tick and flea susceptibility was evaluated using a modified disposable pipette method. See, Barnard, D. R., et al., J. Econ. Entomol. 74:466–69 (1981).
(§2) Groups of 10 nymphal I. scapularis and X. cheopis fleas were used in all tests, resulting in a total of 5,240 nymphs and 4,860 fleas exposed to the compounds. The inner surface of 2-dram friction cap vials were treated with the compound/acetone solution, or acetone only as a control, and left to air-dry overnight. Three to 4 holes were made in the plastic cap to allow for air exchange. Nymphal ticks and adult fleas were then placed directly into the vials using forceps. Vials containing ticks or fleas were placed in desiccators for 24 h at 21° C. and 90% RH. Morbidity and mortality was recorded at 1, 2, 4, 8, and 24 h after initial exposure.

[1] = system: Xenopsylla cheopis adults; experiment: as above; type: in vivo
Procedure: as §1, §2

Aedes aegypti adults = experiment: Residual activity, treated bottles aged before loading (Example 9); type: in vivo
Procedure: (§3) Mosquit Bioassay. Adult mosquitoes were tested using the bottle bioassay method of Brogden, W. G., and McAllister, J. C., J. Am. Mosq. Control Assoc. 14:159–64 (1998), with minor modifications. Natural product extracts were two-fold serially diluted for a total of 8 concentrations ranging from 0.002% to 0.25% in 1.5 ml of acetone. Individual dilutions were added to 250 ml Wheaton glass bottles and capped. Bottles were manipulated to evenly coat all inner surfaces. The caps were removed and bottles were allowed to air-dry overnight. Once bottles were completely dry, 10–50 adult mosquitoes were aspirated into the bottles. Mosquitoes were held in the bottles for 24 h at 23° C. and 85% RH. Morbidity and mortality were recorded at 15, 30, 45, and 60 min and 24 hour intervals. One bottle for each replicate was treated with acetone only and served as a control. The dose-mortality data was evaluated with probit analysis, using the LdP Line software, to determine LC50 and LC90 values.

Ae. aegypti adults = experiment: Mosquito bottle bioassay (Example 9); type: in vivo; conditions: 24 h exposure; probit analysis
Procedure: Mosquito Colonies. Aedes aegypti adult mosquitoes were obtained from an existing colony at the Centers for Disease Control and Prevention (CDC), Division of Vector-Borne Infectious Diseases (DVBID), Fort Collins, Colo. This colony has been maintained for over fifteen years with no known history of exposure to pesticides. Mosquitoes were reared at 28° C., 85% RH, and a 14:10 h (light:dark) cycle. Larvae were grown in de-ionized water and fed ground liver powder solution ad libitum. Fourth instars were removed and placed in emergence cages, and adults were fed a 2% sucrose solution until assayed. Adults were exposed to test products at 4–7 d after emergence.
as §3

X. cheopis adults = experiment: Flea bioassay, treated vials (Example 9); type: in vivo; conditions: 24 h exposure; probit analysis
Procedure: Flea Colonies. Adult X. cheopis fleas (1–3 wk old) were obtained from a colony founded more than eight years ago using adults received from Tom Schwan, Rocky Mountain Laboratories, Hamilton, Mont. The area from which these original adult fleas were obtained, and the resulting colony, have no known histories of pesticide exposure.
as §1, with “acetone.” for “acetone. The approximate toxicity of individual compounds was determined with a total of 8 doses ranging from 0.002% to 0.25%.”, “Entomol.” for “Entomol. 74:466–69 (1981).”
as §2, with “The” for “Groups of 10 nymphal I. scapularis and X. cheopis fleas were used in all tests, resulting in a total of 5,240 nymphs and 4,860 fleas exposed to the compounds. The”

I. scapularis nymphs = experiment: Tick bioassay, modified disposable pipette method, treated vials (Example 9); type: in vivo, Ixodes scapularis; conditions: 24 h exposure; probit analysis
Procedure: Tick Colonies. […] There was no known pesticide used at this location. Ticks were maintained at 21° C., 90% RH, and received a 16:8 h (light:dark) cycle as described in […]. Med. […] Tick and Flea Bioassays. […] A control treated with acetone only was run with each series. Tick and flea susceptibility was evaluated using a modified disposable pipette method. See, Barnard, D. R., et al., J. Econ. […] Three to 4 holes were made in the plastic cap to allow for air exchange. Nymphal ticks and adult fleas were then placed directly into the vials using forceps. Vials containing ticks or fleas were placed in desiccators for 24 h at 21° C. and 90% RH. […] For each time point, if ticks were incapable of movement, maintaining normal posture, leg coordination, ability to right themselves, or any signs of life, they were considered moribund or dead.

[2] = residual activity at 1 week after treatment
[3] = residual activity at 2 weeks after treatment
[4] = residual activity at 4 weeks after treatment

Structure (SMILES) | Slope (Ixodes scapularis nymphs; [2]) | Slope (Ixodes scapularis nymphs; [3]) | Slope (Ixodes scapularis nymphs; [4]) | Slope [1, 2] | Slope [1, 3] | Slope [1, 4] | Slope (Aedes aegypti adults; [2]) | Slope (Aedes aegypti adults; [3]) | Slope (Aedes aegypti adults; [4]) | Slope (Ae. aegypti adults) | Slope (X. cheopis adults) | Slope (I. scapularis nymphs)
C=C(C)[C@@H]1CCC2=CC(=O)C[C@@H](C)[C@]2(C)C1 [Compound 8, Nootkatone] | 2.871 | 2.727 | 2.871 | 3.107 | 1.931 | 1.95 | 3.858 | 4.953 | 7.772 | – | – | –
CC(C)=CCc1ccc(O)c(=O)cc1C(C)C [Compound 11, Nootkatin] | – | – | – | – | – | – | – | – | – | 1.327 | – | –
C=C(C)C1CC=C2C=CCC(C)C2(C)C1 (centres unmarked) [Compound 6, Nootkatene] | 0.533 | – | – | – | – | – | 1.833 | – | – | 3.696 | 2.022 | –
C[C@@H]1CCC=C2CCC(C3(C)CO3)C[C@]21C (some centres unmarked) [Compound 13, valencene-11,12-epoxide] | – | – | – | – | – | – | – | – | – | 1.581 | – | –
C=C(CO)C1CCC2=CCC[C@@H](C)[C@]2(C)C1 (some centres unmarked) [Compound 10, 13-hydroxy-valencene] | 3.005 | 1.781 | 1.285 | 2.218 | 2.442 | – | 3.286 | 6.932 | 2.645 | 2.094 | 3.143 | –
C=C(C)C1CCC23OC2C(=O)C[C@@H](C)[C@]3(C)C1 (some centres unmarked) [Compound 17, nootkatone-1,10-epoxide] | – | – | – | – | – | – | – | – | – | 1.346 | 2.326 | –
C=C(C)[C@@H]1CCC2=C[C@@H](O)C[C@@H](C)[C@]2(C)C1 [Compound 12, Nootkatol] | – | – | – | – | – | – | – | – | – | 3.201 | 2.101 | 3.069
Cc1ccc(C(C)C)cc1O [Compound 4, Carvacrol] | – | – | – | – | – | – | – | – | – | 2.908 | 3.413 | 3.906
C=C(C)[C@@H]1CCC2=CCC[C@@H](C)[C@]2(C)C1 [Compound 5, Valencene] | – | – | – | – | – | – | – | – | – | 3.199 | 6.925 | –
C=C(C=O)C1CCC2=CCC[C@@H](C)[C@]2(C)C1 (some centres unmarked) [Compound 15, valencene-13-aldehyde] | 2.859 | – | – | 3.211 | – | – | 3.392 | 3.136 | – | 8.714 | 5.366 | –
C=C(C)[C@@H]1CCC2=CC(=O)C[C@@H](C)[C@]2(C)C1 [Compound 9, Nootkatone] | 1.304 | 2.649 | – | 1.633 | 2.571 | 3.135 | 4.336 | 4.014 | 4.169 | – | – | –
C[C@@H]1CC(=O)C2OC23CCC(C2(C)CO2)C[C@@]13C (some centres unmarked) [Compound 18, nootkatone-1,10-11,12-diepoxide] | – | – | – | – | – | – | – | – | – | 4.472 | 1.455 | –
C=C(C)[C@@H]1CCC2=CC(=O)C[C@@H](C)[C@]2(C)C1 [Compound 7, Nootkatone] | 1.682 | 1.586 | 1.609 | 2.546 | 2.033 | – | 3.043 | 3.342 | 2.698 | – | – | –
